Test results published in PubChem BioAssay (EPA / NIEHS).
For some of these results: Shown are results outside the selection of hits, which stands elsewhere. Records with an inconclusive call do not appear. Only a part is listed here, and it is no random draw. Active and inactive are the calls of the source. Rule for the calls, unless noted: active = hit-call score of the fitted dose curve at least 0.9, where 1 is the maximum; inactive = score below 0.9.

Protein sequences, listed by entry. Tags and fused reporters are not part of them. Lines headed by an entry give the natural chain unless they say otherwise; changes in a name come on top.
UniProt Q16656: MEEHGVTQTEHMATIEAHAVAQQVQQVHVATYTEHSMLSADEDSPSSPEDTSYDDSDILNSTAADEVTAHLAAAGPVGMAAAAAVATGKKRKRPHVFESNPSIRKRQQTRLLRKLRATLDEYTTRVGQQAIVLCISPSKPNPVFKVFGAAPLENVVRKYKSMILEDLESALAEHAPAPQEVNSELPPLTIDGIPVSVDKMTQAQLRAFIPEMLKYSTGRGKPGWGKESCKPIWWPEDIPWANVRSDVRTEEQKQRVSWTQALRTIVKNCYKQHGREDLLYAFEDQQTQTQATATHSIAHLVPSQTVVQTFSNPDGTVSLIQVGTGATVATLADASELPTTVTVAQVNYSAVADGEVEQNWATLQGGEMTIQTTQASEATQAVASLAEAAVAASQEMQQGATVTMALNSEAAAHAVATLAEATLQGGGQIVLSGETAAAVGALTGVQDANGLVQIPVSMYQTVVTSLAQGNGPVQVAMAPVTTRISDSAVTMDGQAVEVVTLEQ
UniProt P49884, whole entry, looked up: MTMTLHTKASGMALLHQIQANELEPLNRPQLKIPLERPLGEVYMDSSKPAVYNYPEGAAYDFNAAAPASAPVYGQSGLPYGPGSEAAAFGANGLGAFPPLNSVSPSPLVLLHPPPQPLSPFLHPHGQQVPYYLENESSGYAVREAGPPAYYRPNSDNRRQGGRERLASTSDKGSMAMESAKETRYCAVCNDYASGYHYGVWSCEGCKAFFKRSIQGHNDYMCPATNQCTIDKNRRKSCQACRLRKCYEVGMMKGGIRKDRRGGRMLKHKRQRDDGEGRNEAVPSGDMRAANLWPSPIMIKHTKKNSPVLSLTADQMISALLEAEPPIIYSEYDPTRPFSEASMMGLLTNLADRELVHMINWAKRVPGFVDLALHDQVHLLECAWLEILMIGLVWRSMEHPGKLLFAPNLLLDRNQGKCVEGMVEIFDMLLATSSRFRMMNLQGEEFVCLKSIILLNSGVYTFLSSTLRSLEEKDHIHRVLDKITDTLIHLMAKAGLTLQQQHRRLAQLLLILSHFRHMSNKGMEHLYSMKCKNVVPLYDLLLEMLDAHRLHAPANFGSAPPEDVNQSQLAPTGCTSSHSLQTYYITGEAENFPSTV
UniProt P03372, whole entry, looked up: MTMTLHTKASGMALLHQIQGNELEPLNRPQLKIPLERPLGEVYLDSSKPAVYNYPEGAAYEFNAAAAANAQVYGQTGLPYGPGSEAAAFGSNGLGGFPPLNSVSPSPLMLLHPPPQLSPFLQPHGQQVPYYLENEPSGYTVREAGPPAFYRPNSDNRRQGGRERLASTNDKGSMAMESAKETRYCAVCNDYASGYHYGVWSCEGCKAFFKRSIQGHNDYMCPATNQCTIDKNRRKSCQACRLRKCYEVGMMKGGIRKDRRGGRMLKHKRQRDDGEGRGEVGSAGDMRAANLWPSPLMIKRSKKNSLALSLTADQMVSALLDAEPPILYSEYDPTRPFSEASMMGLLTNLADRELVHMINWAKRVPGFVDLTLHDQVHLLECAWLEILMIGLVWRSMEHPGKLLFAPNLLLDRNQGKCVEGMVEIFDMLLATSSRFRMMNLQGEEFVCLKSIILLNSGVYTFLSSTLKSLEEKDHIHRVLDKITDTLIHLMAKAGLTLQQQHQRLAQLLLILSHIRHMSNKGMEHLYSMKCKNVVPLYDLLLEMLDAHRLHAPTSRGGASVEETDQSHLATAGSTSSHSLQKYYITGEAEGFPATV
UniProt Q96RI1: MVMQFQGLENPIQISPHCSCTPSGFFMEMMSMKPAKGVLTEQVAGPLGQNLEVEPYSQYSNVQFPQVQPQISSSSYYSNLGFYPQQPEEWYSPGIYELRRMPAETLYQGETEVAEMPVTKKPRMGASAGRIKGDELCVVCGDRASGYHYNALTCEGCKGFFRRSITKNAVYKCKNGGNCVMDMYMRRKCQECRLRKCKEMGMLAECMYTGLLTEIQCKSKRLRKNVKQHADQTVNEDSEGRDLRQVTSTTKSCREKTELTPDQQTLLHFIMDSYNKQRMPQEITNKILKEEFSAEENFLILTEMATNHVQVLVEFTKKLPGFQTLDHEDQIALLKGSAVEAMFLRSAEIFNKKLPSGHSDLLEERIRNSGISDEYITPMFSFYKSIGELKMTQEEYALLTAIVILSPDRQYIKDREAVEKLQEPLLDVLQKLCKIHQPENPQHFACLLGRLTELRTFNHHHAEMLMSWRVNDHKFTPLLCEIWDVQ
UniProt P43354, whole entry, looked up: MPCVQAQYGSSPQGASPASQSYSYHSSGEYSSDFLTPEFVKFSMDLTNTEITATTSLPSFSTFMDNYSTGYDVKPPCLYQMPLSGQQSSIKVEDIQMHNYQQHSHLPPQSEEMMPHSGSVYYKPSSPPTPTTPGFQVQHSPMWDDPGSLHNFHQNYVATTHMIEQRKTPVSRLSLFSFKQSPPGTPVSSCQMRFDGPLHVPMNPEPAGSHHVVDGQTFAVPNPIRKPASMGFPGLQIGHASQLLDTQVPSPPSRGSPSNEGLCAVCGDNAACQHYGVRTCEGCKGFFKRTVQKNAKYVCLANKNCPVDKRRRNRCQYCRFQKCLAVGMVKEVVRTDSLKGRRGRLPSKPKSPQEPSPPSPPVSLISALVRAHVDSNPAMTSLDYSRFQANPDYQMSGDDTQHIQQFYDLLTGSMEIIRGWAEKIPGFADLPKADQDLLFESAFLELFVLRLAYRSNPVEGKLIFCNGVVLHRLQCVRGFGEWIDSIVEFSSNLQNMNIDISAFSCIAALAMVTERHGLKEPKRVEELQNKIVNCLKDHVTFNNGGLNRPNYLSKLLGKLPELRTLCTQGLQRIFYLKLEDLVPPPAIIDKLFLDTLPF

Legend:
[1] = biological target: Nuclear respiratory factor 1 (Homo sapiens) (UniProt Q16656); assay: ATG_NRF1_CIS: Attagene CIS-FACTORIAL HepG2 Assay for human Nuclear Respiratory Factor 1 (NRF1) Orphan Gene (AID 2282987); conditions: HepG2 NRF1 cis-element reporter, Attagene multiplex; actives raise or lower the signal
Method in brief: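 Fluorescence intensity of labelled reporter cDNA fragments, resolved by capillary electrophoresis, served as readout for NRF1 cis-element activity. Transiently transfected HepG2 cells were dosed for 24 hours; activity in either direction was fitted against DMSO negative control.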

[2] = ATG_NFI_CIS: Attagene CIS-FACTORIAL HepG2 Assay for human Nuclear Factor I (NFI) (AID 2282989); conditions: HepG2 cis-regulatory reporter, NFI response element transcription; actives raise or lower the signal
Method in brief: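 Cells: human liver HepG2, transiently transfected with promoter-regulated reporter transcription units. Exposure 24 h. Detection: fluorescent RT-PCR products separated by capillary electrophoresis, normalised to DMSO negative control.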

[3] = ATG_NRF2_ARE_CIS: Attagene CIS-FACTORIAL HepG2 Assay for human Nuclear Factor Erythroid 2 Related Factor 2 (NFR2) response to Antioxidant Response Elements (ARE) (AID 2282992); conditions: HepG2 Attagene ARE/NRF2 reporter, transcription factor activity; actives raise or lower the signal
Method in brief: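 Using transiently transfected HepG2 cells exposed for 24 h, reporter mRNA levels were determined by RT-PCR with fluorescent primer extension and capillary electrophoresis, analysed for gain or loss of signal against DMSO.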

[4] = biological target: bovine Estrogen Receptor (ER), ESR1 (gene 407238) (UniProt P49884); assay: NVS_NR_bER: NovaScreen (NVS) Nuclear Receptor Binding Assay for bovine Estrogen Receptor (ER) (AID 2283345; active = hit-call score of the fitted dose curve at least 0.9, where 1 is the maximum;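 note: actives lower the bound radioligand count which means they displace the ER ligand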)
Method in brief: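 Bovine uterine membranes; tritiated or iodinated radioligand; competitive displacement; 18 h; scintillation read; DMSO negative control; 25 uM duplicates, then concentration series for actives.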

[5] = biological target: Estrogen receptor (Homo sapiens) (UniProt P03372); assay: NVS_NR_hER: NovaScreen (NVS) Nuclear Receptor Binding Assay for human Estrogen Receptor (ER) (AID 2283348; active = hit-call score of the fitted dose curve at least 0.9, where 1 is the maximum)
Method in brief: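 Radiodetection of ligand displacement in a lysate-based, cell-free format using MCF7 extracts, read at 18 hours. Duplicate 25 uM primary testing, then concentration series for actives.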

[6] = biological target: Bile acid receptor (Homo sapiens) (UniProt Q96RI1); assay: ATG_IR1_CIS: Attagene CIS-FACTORIAL HepG2 Assay for human Nuclear Receptor Subfamily 1 Group H Member 4 (NR1H4), IR1 submotif (AID 2282946); conditions: IR1 reporter transcription, actives raise or lower the signal
Method in brief: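 Readout: reporter transcript levels by RT-PCR with fluorescent capillary electrophoresis, from HepG2 cells transiently transfected with multiplexed cis-regulated reporters and dosed 24 h. Gain- or loss-of-signal fitted versus DMSO negative control.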

[7] = biological target: Nuclear receptor subfamily 4 group A member 2 (Homo sapiens) (UniProt P43354); assay: ATG_NURR1_TRANS: Attagene TRANS-FACTORIAL HepG2 Assay for human Nuclear Receptor Related Protein 1 (NURR1) (AID 2282985; active = hit-call score of the fitted dose curve at least 0.9, where 1 is the maximum); conditions: HepG2 Attagene TRANS reporter, mRNA readout
Method in brief: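 Chimeric NR-Gal4 fusion activity measured in HepG2 after 24 h treatment. Reporter transcripts detected by RT-PCR and capillary electrophoresis fluorescence; positive-direction curve fitting against DMSO.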

Measured: outcome

CN1[C@@H]2CC(OC(=O)[C@H](CO)c3ccccc3)C[C@H]1[C@@H]1O[C@@H]12 (stereo not given in full)
not listed: [6] | [7]
inactive: all other assays above

O=C(O)COCCN1CCN(C(c2ccccc2)c2ccc(Cl)cc2)CC1 (stereo not given)
not listed: [4] | [5]
inactive: all other assays above
